The whole screen tested about 52,000 sequences, of which about 210 (0.4%) were called active.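 The calls were made as follows: active = gene whose silencing raises cell survival under the drug, median off-target-corrected z-score across its silencing RNAs 2 or more; inactive = the rest.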 The list shows a part of the results.
Assay: Resistance to Poly (ADP-Ribose) Polymerase inhibitor: Gene Identification via Genome-wide siRNA Screen
Conditions: mouse BRCA2 R2336H ES cells, olaparib, CellTiter-Glo viability; active compounds read high
Procedure, shortened: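 Genome-wide siRNA screen (3 siRNAs/gene, 20 nM) in mouse ES cells carrying hypomorphic BRCA2 R2336H; olaparib 500 nM added 48 h post-transfection, CellTiter-Glo viability 72 h later. Normalized to plate-median negative control; MAD z-scores, gene median, seed-adjusted.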

| Sequence | z-score |
| --- | --- |
| GGGACAGACCUUGCCUUUGTT against 2410004C24Rik | inactive: 0.693 |
| GAACUCUCUCUUCAUCUGGTT against Clm3 | inactive: 1.09 |
| GGAGAGCCUGAGCAAGAAUTT against AW547186 | inactive: -1.91 |
| GGGUGAGAAGAAAAUCCGGTT against Zbtb7 | inactive: 0.75 |
| GCAAGUAUUUUACAGGUGCTT against Lman1 | inactive: 0.734 |
| GGAAGAUUUAGGUUCUACUTT against Def8 | inactive: 0.875 |
| GGAACGAGAAGAAAUUUAGTT against 3110049J23Rik | inactive: 0.00748 |
| CGGACAGUAUCACAAUCGUTT against 2900055D03Rik | inactive: -0.898 |
| GGGAAGACCAUUUUUAAAUTT against Zfp78 | inactive: 0.79 |
| GCUCUCGUAGACUGCUAUATT against Ppp1r14c | inactive: -0.76 |
| GACAGUCUCAAAUUUAUCCTT against Mapbpip | inactive: -1.31 |
| GCUAUACACUUACUAGAAUTT against Gpr110 | inactive: -0.152 |
| GCUCGAGGACUAUAUGAAUTT against Xrcc1 | inactive: -1.25 |
| GCAGAUGGGCAUCUAUGCUTT against Trpv1 | inactive: 1.82 |
| CCACUAUUCUGUCAAAGGGTT against Pmm2 | inactive: 0.257 |
| GGUGGUCACUAAGAAGUUCTT against 1700011K15Rik | inactive: 0.535 |
| GGACAGUCGAAUUUCAGUCTT against Olfr417 | inactive: 0.149 |
| GCUGGUGUGUAACAUCAAUTT against Fut8 | inactive: 1.72 |
| GGAAAGAAUCCACUUGCAUTT against 5430438H03Rik | inactive: 1.7 |
| GCAGCAGUUUUGUAGACAUTT against Fbxo25 | inactive: 1.53 |
| CCACUGAAGUUUUCAUUCUTT against Olfr1055 | inactive: 0.663 |
| GGAAAUGAGUCUCAACCAGTT against D13Wsu64e | inactive: -0.694 |
| CCCUUCUCCACCUGAGAGUTT against Orm3 | inactive: 0.573 |
| GGUAUAGAGAGUUCGUGUGTT against Snx10 | inactive: 1.63 |
| GGAAUAAAGGAACUGAAUCTT against Plek | inactive: 0.753 |
| CCUGUAAAGUGUGAUAUUATT against Cach | inactive: -0.551 |

Exported with each value named: entries from further up.
GGAACGAGAAGAAAUUUAGTT against 3110049J23Rik
  z-score: inactive: 0.00748
GGAAAGAAUCCACUUGCAUTT against 5430438H03Rik
  z-score: inactive: 1.7

(listing goes on)

| Sequence | z-score |
| --- | --- |
| GCUCAACUUCUGAAUUAUATT against Enpep | inactive: 0.121 |
| GGGACAGUUGACUUUUUAUTT against Cntn4 | inactive: -0.00236 |
| GGCUCUGGCUAAGUACUUGTT against Cenpb | inactive: 0.497 |
| GGCAAAUUAAAGACAAAUCTT against 9530009G21Rik | inactive: 1.04 |
| GGGAACUUAACCUAGGCGUTT against Ipf1 | inactive: 1.49 |
| AGUCUCACCAGCAACGCACTT against 4930451E10Rik | inactive: -2.33 |
| UCGGGAAAUGAAAUGUUGCTT against Crh | inactive: 0.767 |
| GCAGAUUUGAAGCAUAUUGTT against BC004022 | inactive: -0.505 |
| GGGAAGUUUGGUUCUUUGGTT against Msn | inactive: 0.371 |
| GCAAAAGGAAACGAUCUCATT against Fbxo43 | inactive: -0.96 |
| GCCAUACGACUAUAGUAUUTT against 2610305D13Rik | inactive: -0.402 |
| GGCUUUUCUGCCAUUUAUGTT against Sox18 | inactive: -0.144 |
| GGUGAAAAUCAAGCUGAAUTT against Smarca2 | inactive: 0.264 |
| CCAUUGCCAACAACUAGAUTT against Ela3b | active: 2.87 |
| GGUAUGAAUACCACUGGGCTT against Mobk1b | inactive: -0.288 |
| GGCUCACAAAGAGGAAAACTT against A730042J05Rik | inactive: -0.922 |
| GGAAGAUUAUUUUCUUACCTT against 4933404O11Rik | inactive: 1.32 |
| CCAUGAGGAUGAUUACCUATT against Cnga2 | inactive: -0.306 |
| UCCCAACUCCUAAAGAUCGTT against F730035P03Rik | inactive: -1.35 |
| GGACAUCCGUCCCUAUAUCTT against Zfp366 | inactive: 0.516 |
| GCGAGAAAUUACCACCUUCTT against Klhl8 | inactive: -0.475 |
| GCUAUUCUGGUGUCAAGACTT against Gbp1 | inactive: -0.426 |
| GCGGAGAAUAACAUAUCUCTT against Fut8 | inactive: 0.214 |
| CGAAAGUUACUCAUAGAGATT against Itga6 | active: 0.364 |
| GGCGGAAAUGCAAAUGCAATT against Bxdc1 | inactive: -0.61 |
| GCCGGGAUUUCGUUUUCUUTT against BC031407 | inactive: 1.57 |

| Sequence | z-score |
| --- | --- |
| GGAAAAAGGCUUUUGGGACTT against Olfr135 | inactive: -0.216 |
| GAUUCCAAGACAUUAAACATT against Frda | inactive: -1.67 |
| GCACGGCCCUACUUUAUAGTT against Trim33 | inactive: -1.64 |
| CGGUUGUCUUCCUCUUAGUTT against Fzd5 | inactive: -1.44 |
| CGCACUGGAUAAUAUCAGCTT against Dok5 | inactive: -0.307 |
| GGAAAAUCAUGGGAGCCUUTT against Lpo | inactive: -1.5 |
| GGCAGUCCUUCCUCCAAAGTT against A630048M13Rik | inactive: -1.16 |
| GGCUGAAGAUGGAAACAUCTT against Gtpbp2 | inactive: 0.741 |
| GGAUUUCAACAUCUAUGGCTT against Tpra40 | inactive: 0.185 |
| GGGAAGUUUCUUGAAGCACTT against Rfxank | inactive: -0.821 |
| GCAGAUCUGCGUCAAUGCUTT against Scube1 | inactive: 0.0542 |
| GGAGUAUGAUUCAGAAAUGTT against Scn11a | inactive: -0.351 |
| GGAUUUGUGACUUUCUGCATT against 4930583C14Rik | inactive: 0.696 |
| GGGAUCGCUGUAUAGAAAUTT against Chdh | inactive: 0.124 |
| GGUAAAGUGGGAUGUGGAATT against C130067A03Rik | inactive: -1.01 |
| GCGAGAUUCUUAAAGAAAUTT against Brdt | inactive: -0.0933 |
| GGCCAAAGUACUUUGUUCCTT against 4930402E16Rik | inactive: -0.661 |
| GGCUUUGUAGCGAUAACAATT against D930030D11Rik | inactive: -0.637 |
| CCUGUGGAUUAUGAGUUCATT against Zfhx1a | inactive: -0.827 |
| GCCGCUUAGAGGCUCAUCUTT against Nfe2l2 | inactive: 0.218 |
| GGAAAUUAAGUGAUUUGACTT against 4432417N03Rik | inactive: -0.196 |
| GAGCUAAGCAAGAUGCUAGTT against Sox17 | inactive: -0.182 |
| GGAAACCUAUGUCUCAAGATT against Mrps36 | inactive: -0.223 |
| CGUAUUAUGUCUGGUUUGUTT against Slc35a1 | inactive: -0.624 |
| GGGUGUUUUCAUUAACACATT against Setdb1 | inactive: -0.483 |
| GGUGAGCACCUUCAAGUCUTT against Gpc2 | inactive: 0.589 |

Some of the entries so far, comma-delimited:
Sequence,z-score
GCCGCUUAGAGGCUCAUCUTT against Nfe2l2,inactive: 0.218
GGAAAUUAAGUGAUUUGACTT against 4432417N03Rik,inactive: -0.196
GAGCUAAGCAAGAUGCUAGTT against Sox17,inactive: -0.182

Following part

| Sequence | z-score |
| --- | --- |
| GGGUACCUCAUAAAGCAUATT against Dock2 | inactive: -0.228 |
| GAAUGAGGAUCUACGAAAATT against Crygb | inactive: 0.434 |
| GGAUCUCUCCUUGAGGAGATT against Glp2r | inactive: -0.357 |
| GGGACUUCCUUAUUGGAACTT against A830019P07Rik | inactive: -0.0745 |
| GCGAGUAAUUUCGUUUCCCTT against Hoxd3 | inactive: 0.0831 |
| GGUUCUGAAGAUGGAGGUUTT against Ttbk1 | inactive: -1.25 |
| GCAUCAAAAAAAAUUCGUGTT against Dpysl2 | inactive: -0.454 |
| GGCUAAUCCACUCUGAGUATT against Wasl | inactive: 0.416 |
| GCCUGGCUAGAAAUGUGGUTT against Fprl1 | inactive: 0.157 |
| GGCAGUUCCUGGAUUACCUTT against Il5 | inactive: 0.711 |
| GGCUGUGAAGAACUGGCAGTT against Rnaseh2a | inactive: 0.859 |
| GCGAACCAAAAUUGAGUUUTT against Hcngp | inactive: 1.31 |
| GGUGUCCACAUUAAAUUACTT against Foxb1 | inactive: 3.51 |
| UUGGGAUGGGUCAUGCCUUTT against LOC381806 | inactive: 1.68 |
| GGUGUUCUUAAUGAGAUUCTT against Gdf5 | inactive: -0.309 |
| GGCCUAAACACGGUUUUCATT against C79127 | inactive: -2.14 |
| CGAAAACCUUGCCACUGAGTT against 2810427I04Rik | inactive: 2.97 |
| GGUGGAACAACUGUUUCAATT against Dyrk3 | inactive: 0.722 |
| AUGAAGUCGUUGUUCUCAUTT against Olfr918 | inactive: -1.05 |
| CCUGGAAGUUUUGAGACACTT against AI839562 | inactive: 1.32 |
| GGAUACAAAUCAGGUUCUCTT against 2310037I24Rik | inactive: -1.71 |
| GGAUCCUGUUAAGAUUAUCTT against 2900006B13Rik | inactive: 1.17 |
| GGCAUCUGACGAUAAUGAUTT against Lman2l | inactive: 1.13 |
| GGAUGAAAUCUCUAUCCUCTT against BC029169 | inactive: 0.136 |
| GGAAAUGGCUCAUUUUAUCTT against Tmem32 | inactive: 1.56 |
| CGAUUUCCUUGGCACCAAUTT against Arhgap1 | inactive: -0.998 |

For convenience, some entries already given:

| Sequence | z-score |
| --- | --- |
| GGUAAAGUGGGAUGUGGAATT against C130067A03Rik | inactive: -1.01 |
| GCGAGAUUCUUAAAGAAAUTT against Brdt | inactive: -0.0933 |

Reference: PubChem BioAssay AID1347423 (Functional Genomics Laboratory (NCATS/FGL), 2020)
